PubChem BioAssay AID1259424 | University of Nebraska Medical Center – 2018
Purpose: 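Seek colon cancer survival genes behaving like KSR1, using a six-gene signature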 (primary screen). Cell system: human HCT116 colon cancer cells. Reagents: siRNA pool against human genes, 50 nM. Detection: 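Log2 levels of six mRNAs (branched-DNA multiplex), adjusted by two reference genes and the non-targeting median, then scored against the average KSR1 knockdown pattern as Pearson r and euclidean distance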. Direction: mean correlation with KSR1 profile and KSR1 correlation: higher = expression change more like KSR1 knockdown; mean distance from KSR1 profile: higher = expression change less like KSR1 knockdown.
This is an unselected part of about 14,000 reagents. 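Higher correlation or smaller distance means closer resemblance to KSR1 loss; control wells, including KSR1 knockdowns, recur on many plates.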 Some reagents were tested in more than one well and are listed for each. Not stated in the record: the time to read-out.

Target gene | PubChem SID | mean correlation with KSR1 profile | mean distance from KSR1 profile | KSR1 correlation, replicate 1 | KSR1 correlation, replicate 2 | KSR1 correlation, replicate 3
DEFA4 | SID363993138 | -0.508 | 2.04 | -0.369 | -0.182 | -0.419
ARL4D | SID363992885 | 0.225 | 1.41 | 0.225 | 0.187 | 0.181
DBN1 | SID363995379 | -0.529 | 2.59 | -0.576 | -0.682 | -0.306
EIF2AK3 | SID363995788 | 0.244 | 2.23 | 0.464 | 0.267 | -0.303
PABPC4 | SID363994881 | -0.33 | 2.05 | -0.24 | -0.22 | -0.492
LYVE1 | SID363997473 | 0.254 | 2.26 | 0.185 | 0.38 | 0.249
MTHFD2 | SID363997424 | -0.056 | 1.69 | -0.027 | -0.156 | 0.0597
ESRRG | SID363992700 | 0.0488 | 1.43 | 0.0375 | 0.109 | -0.0761
CMAS | SID364001180 | 0.118 | 2.43 | -0.161 | 0.495 | 0.343
MRPL48 | SID363999829 | -0.539 | 1.93 | -0.334 | -0.775 | -0.501
CDR2 | SID364005252 | -0.619 | 3.99 | -0.571 | -0.601 | -0.524
PDSS1 | SID363998747 | -0.209 | 2.26 | 0.151 | -0.473 | -0.293
SPRYD3 | SID364004217 | 0.388 | 1.92 | 0.273 | 0.262 | 0.362
ATF4 | SID363992898 | -0.0603 | 2.81 | -0.0136 | -0.0869 | -0.00617
PRADC1 | SID364003905 | 0.313 | 1.48 | 0.423 | 0.199 | 0.0604
GDF11 | SID363996689 | -0.15 | 2.15 | -0.13 | -0.0614 | -0.229
MANBAL | SID364002310 | -0.463 | 2.65 | -0.344 | -0.504 | -0.284
FOXRED2 | SID364003185 | -0.339 | 3.33 | -0.33 | -0.385 | -0.8
ABCB5 | SID364004918 | 0.166 | 1.28 | 0.391 | 0.308 | 0.149
TERT | SID363994348 | 0.104 | 3.43 | -0.0938 | 0.232 | 0.00357
SNX6 | SID364004695 | -0.203 | 2.48 | -0.133 | -0.163 | -0.471
TYW1 | SID364000925 | -0.109 | 2.5 | 0.00725 | -0.131 | -0.175
PEX16 | SID363995766 | 0.335 | 2.71 | 0.231 | 0.227 | 0.315
TTPA | SID363991701 | -0.247 | 1.88 | -0.421 | -0.228 | -0.287
GOT1 | SID363993286 | 0.699 | 1.54 | 0.519 | 0.75 | 0.769
HSPA1L | SID363996427 | -0.0833 | 3.74 | -0.182 | 0.0742 | -0.141
BUB1B | SID363992497 | -0.166 | 2.55 | -0.00393 | -0.357 | -0.383
RALGDS | SID363997088 | -0.528 | 2.32 | -0.543 | -0.311 | -0.662
AGPAT2 | SID363997223 | 0.423 | 2.26 | 0.448 | 0.454 | 0.34
LARS2 | SID363999426 | -0.17 | 2.35 | 0.0867 | -0.102 | -0.469
KDELR2 | SID363997618 | -0.348 | 1.35 | 0.155 | 0.109 | -0.678
FGF10 | SID363995447 | -0.403 | 1.04 | -0.102 | -0.609 | -0.0134
DCUN1D4 | SID363999310 | -0.18 | 1.35 | -0.103 | -0.031 | -0.346
EN2 | SID363992691 | 0.804 | 1.24 | 0.698 | 0.8 | 0.606
BAG2 | SID363995277 | 0.305 | 3.69 | 0.321 | 0.674 | 0.0899
P2RX6 | SID363996352 | -0.447 | 2.67 | -0.485 | -0.625 | -0.488
CLDN6 | SID364002082 | -0.203 | 2.44 | -0.113 | -0.0322 | -0.173
GABRG3 | SID364004345 | 0.00446 | 4.02 | 0.06 | -0.0514 | 0.156
ZBTB1 | SID363999219 | -0.4 | 2.8 | -0.12 | -0.629 | -0.33
SLC41A3 | SID364000568 | -0.428 | 4.08 | -0.19 | -0.535 | -0.411
DPF3 | SID363998026 | 0.281 | 0.808 | 0.149 | 0.328 | 0.078
APOO | SID364002766 | -0.161 | 3.35 | -0.43 | -0.262 | -0.0779
ZNF236 | SID363997987 | -0.451 | 2.58 | -0.591 | -0.426 | -0.236
SP7 | SID364004748 | -0.115 | 3.1 | -0.195 | -0.307 | -0.0663
MXD4 | SID363997262 | -0.243 | 1.54 | 0.356 | 0.216 | -0.468
POLD3 | SID363997382 | -0.76 | 2.62 | -0.539 | -0.797 | -0.619
MTA3 | SID364005107 | -0.546 | 2.14 | -0.376 | -0.319 | -0.586
MKS1 | SID364000521 | -0.713 | 2.5 | -0.325 | -0.704 | -0.795
TGM2 | SID363995581 | 0.771 | 1.63 | 0.784 | 0.845 | 0.601
DDX18 | SID363997543 | -0.392 | 2.9 | -0.595 | -0.225 | -0.363
ABCA12 | SID363999628 | -0.54 | 2.35 | -0.369 | -0.485 | -0.427
AUH | SID363992920 | -0.384 | 2.1 | -0.449 | -0.322 | -0.466
TNFRSF13B | SID363998328 | -0.171 | 2.17 | -0.213 | -0.174 | -0.0998
BTBD8 | SID364005075 | -0.418 | 1.85 | -0.441 | -0.369 | -0.291
RHBDF2 | SID364002903 | 0.626 | 1.26 | 0.645 | 0.529 | 0.493
FABP2 | SID363991470 | -0.611 | 1.81 | -0.45 | -0.632 | -0.693
ZNF767P | SID364003154 | -0.329 | 2.83 | -0.205 | -0.157 | -0.566
CLDN2 | SID364001651 | 0.153 | 2.49 | 0.0844 | 0.139 | 0.134
DCHS2 | SID364000410 | -0.143 | 2.74 | -0.106 | -0.322 | -0.0619
GRK3 | SID363996087 | 0.665 | 1.34 | 0.63 | 0.654 | 0.535
GRK3 | SID363996087 | 0.419 | 1.85 | 0.568 | 0.107 | 0.393
VCF1 | SID364004214 | -0.114 | 3.01 | -0.0417 | -0.153 | -0.395
EMILIN2 | SID364003767 | 0.415 | 1.74 | 0.198 | 0.366 | 0.458

Reprinted from the listing (4 entries):
Target gene | PubChem SID | mean correlation with KSR1 profile | mean distance from KSR1 profile | KSR1 correlation, replicate 1 | KSR1 correlation, replicate 2 | KSR1 correlation, replicate 3
MANBAL | SID364002310 | -0.463 | 2.65 | -0.344 | -0.504 | -0.284
FOXRED2 | SID364003185 | -0.339 | 3.33 | -0.33 | -0.385 | -0.8
ABCB5 | SID364004918 | 0.166 | 1.28 | 0.391 | 0.308 | 0.149
TERT | SID363994348 | 0.104 | 3.43 | -0.0938 | 0.232 | 0.00357
